Consider one molecule from PMC7280309 (Nature Communications, 2020).

Chains of the proteins cited; added tags and fusions are not shown.
UniProt Q5ZYC6: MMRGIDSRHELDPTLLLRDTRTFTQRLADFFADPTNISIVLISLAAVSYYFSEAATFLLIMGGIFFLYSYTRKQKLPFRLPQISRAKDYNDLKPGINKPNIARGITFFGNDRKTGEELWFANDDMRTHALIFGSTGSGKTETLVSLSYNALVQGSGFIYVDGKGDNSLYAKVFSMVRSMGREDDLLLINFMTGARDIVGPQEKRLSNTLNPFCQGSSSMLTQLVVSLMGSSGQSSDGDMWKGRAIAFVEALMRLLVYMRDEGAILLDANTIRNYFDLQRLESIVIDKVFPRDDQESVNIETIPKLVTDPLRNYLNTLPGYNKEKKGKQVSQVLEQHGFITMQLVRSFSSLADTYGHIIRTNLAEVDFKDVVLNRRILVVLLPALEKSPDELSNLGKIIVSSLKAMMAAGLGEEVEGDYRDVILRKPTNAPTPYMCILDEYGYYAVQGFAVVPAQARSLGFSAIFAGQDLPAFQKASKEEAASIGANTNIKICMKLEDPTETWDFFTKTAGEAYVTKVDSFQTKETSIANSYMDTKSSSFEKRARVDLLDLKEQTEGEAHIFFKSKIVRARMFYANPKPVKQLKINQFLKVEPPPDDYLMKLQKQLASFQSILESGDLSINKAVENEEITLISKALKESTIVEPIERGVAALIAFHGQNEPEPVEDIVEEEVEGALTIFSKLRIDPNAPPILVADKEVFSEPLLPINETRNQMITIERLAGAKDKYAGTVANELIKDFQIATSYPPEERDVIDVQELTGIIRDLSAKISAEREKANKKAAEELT

Results are given in words; binding and its absence hold for the method and conditions named. In cells and extracts the contact can be indirect. These calls come from enrichment with a bait or labelling near it, and not all partners need be listed.

This test has as its target DotL with a C-terminal Strep-tag (Legionella pneumophila) (UniProt Q5ZYC6). Kind of test: affinity purification with mass spectrometry.

B1: DotY (natural protein)
chain: MPKYTLPTRDALLKAMQVGETSIEAAEYMATRFEQILTKAKLLPECNDMLEKIKEYAQFVKFKLLSSAQVWSGQERPTSDYQNTQENKAEFLASHLEGLPSGLKLEVAIGDDAKILRGFSSNGKMVEGDQLKTMDGLLEGWLAKNSLAISGGAVVKIDNTGNQTKVDPQEIRQLINDSEKGVAKYFADKGVGMEVAQRTYQEPKALETKREEIRQEIESGAEAPTTQSIR
Regarding B1, the binding entry is reported as “binds”.
